# From PubChem BioAssay AID1347076 (National Center for Advancing Translational Sciences (NCATS), 2019)
# Where “and” joins values, the source holds several entries; their conditions need not be identical. Identical values can stand only once. About 13,000 (3.2%) of roughly 400,000 compounds were called active. Inconclusive results, whose numbers are uncertain, are shown with a selection of clear calls. Calls follow the shape of the dose curve; as a rule, active = well fitted cell-killing curve with a large enough effect; inconclusive = small, poorly fitted or top-dose-only effect, or effect the other way; inactive = flat fitted curve, though single readings scatter. Potencies of inconclusive entries are doubtful fits and often do not repeat.
# Assay: qHTS assay for MDR1-selective chemotherapeutics: Primary screen using the drug-selected MDR subline cells KB-V1; also: nearly all actives have a fitted effect of over 60% in size
# Conditions: KB-V1 MDR cells viability, CellTiter-Glo, 72 h; activity change, negative = cytotoxicity: at 46.1 µM (top of the series)
# Summary of the method: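 In this primary screen, KB-V1 cells overexpressing P-gp are incubated with library compounds (lowest to highest concentration) for 72 h at 37 degrees C before a luminescent ATP viability read.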
# % is scaled to controls: 0 for no effect and ±100 for the full control effect; potency is read from the fitted curve at half-maximal effect.
SMILES,Potency,"activity change, negative = cytotoxicity"
CCSc1nnc(NC(=O)C2CCCCC2)s1,"inconclusive: 20.6 µM [cytotoxic, partial curve, poor fit]",–
CN(C)Cc1cc(C(C)(C)c2ccccc2)ccc1O,–,inactive: -0.817%
CCCCN(CC)S(=O)(=O)c1ccc(C(=O)Nc2nnc(-c3cccs3)o2)cc1,"inconclusive: 0.651 µM [cytotoxic, partial curve]",–
Cc1ccc(S(=O)(=O)N2CCc3ccccc3CC2)cc1,"inconclusive: 20.6 µM [cytotoxic, single point]",–
CCc1nnc(SCC(=O)Nc2ccc(N3CCN(S(C)(=O)=O)CC3)cc2)o1,–,inactive: -17.2%
CCc1nc2ccc(C(=O)NCCOc3ccc(OC)cc3)cn2c1N(CC)Cc1cccc(Br)c1,"inconclusive: 4.61 µM [cytotoxic, full curve, poor fit]",–
O=C(NCc1ccccc1)C1CCCN(S(=O)(=O)c2ccc(F)cc2)C1 (stereo not drawn),"inconclusive: 20.6 µM [cytotoxic, single point]",–
C=CCn1c(N)c(C(=O)Nc2ccccc2)c2nc3ccccc3nc21,–,inactive: 0%
COc1ccc(CN2[C@@H](CC(C)=O)c3ccc(/C=C/C(C)=O)cc3S2(=O)=O)cc1,"inconclusive: 25.9 µM [cytotoxic, single point] and inconclusive: 29.1 µM [cytotoxic, single point]",–
CCOC(=O)C1CCCN(C(=S)NC(=O)c2cc(Br)ccc2Cl)C1 (stereo not drawn),–,inactive: 0%
Cc1nc(-c2ccc(S(=O)(=O)Nc3cccc(Cl)c3)cc2)co1,–,inactive: -0.202%
Cc1cc(=O)c2cc(Cl)ccc2[nH]1,"inconclusive: 4.11 µM [cytotoxic, full curve]",–
CC(C)(C)c1ccc(C(=O)N2CCC(=O)N(C(COCc3ccccc3)Cc3ccccc3)CC2)cc1 (stereo not drawn),"inconclusive: 29.1 µM [cytotoxic, single point]",–
Cc1ccc(SCCC(=O)N/N=C/c2ccccc2O)cc1,"inconclusive: 6.51 µM [cytotoxic, partial curve, poor fit]",–
CC1CCN(CC(=O)Nc2ccc(C(=O)N3CCCCC3)cc2)CC1,"inconclusive: 1.84 µM [cytotoxic, partial curve]",–
CCc1nc(Nc2cccc(OC)c2)c2oc3ccccc3c2n1,–,inactive: -11.2%
O=C(O)c1cc(/C=C/c2ccc(N3CCOCC3)cc2)nc2ccccc12,active: 10.3 µM,–
O=C(CNC(=O)C1CCCCC1)NNC(=O)c1ccccc1Br,–,inactive: -2.43%
Cc1ccc2nc(-c3ccc(-c4cccc(Cl)c4)cc3)c(NCc3ccccc3)n2c1,–,inactive: 13.5%
Cc1c(NC(=O)c2coc(=O)c(Br)c2)c(=O)n(-c2ccccc2)n1C,"inconclusive: 29.1 µM [cytotoxic, single point]",–
COc1cc2c(cc1OC)CN(C(=O)c1ccc(OC)c(S(=O)(=O)N3CCCC3)c1)CC2,"inconclusive: 16.4 µM [cytotoxic, partial curve, poor fit]",–
O=C(NCc1ccccn1)c1cc(-c2ccc(Cl)cc2)oc1C(F)(F)F,–,inconclusive: -30% [cytotoxic]
CSc1nc(C)cc(SCC(=O)Nc2ccccc2)n1,"inconclusive: 20.6 µM [cytotoxic, single point]",–

SMILES,Potency,"activity change, negative = cytotoxicity"
CO/N=C\CC(=O)Nc1ccc(Oc2ccccc2)cc1,"inconclusive: 0.731 µM [cytotoxic, full curve, poor fit]",–
CCn1nnc2c(=O)oc3ccccc3c21,"inconclusive: 7.31 µM [cytotoxic, partial curve, poor fit]",–
CCc1cc(-c2nnn(CCC3COCCO3)c2CC)cc(CC)c1-c1cn(Cc2ccccc2)nn1 (stereo not drawn),"inconclusive: 16.4 µM [cytotoxic, partial curve, poor fit]",–
C=CC(COCc1ccccc1)N(CC(=O)OC)S(=O)(=O)c1cc(Br)ccc1OC (stereo not drawn),"inconclusive: 16.4 µM [cytotoxic, partial curve]",–
Cc1cc(C(=O)CC#N)c(C)n1CC(F)(F)F,"inconclusive: 23.1 µM [cytotoxic, single point]",–
O=C(Cc1ccsc1-c1ccccc1)NO,"inconclusive: 29.1 µM [cytotoxic, single point]",–
COc1ccc(C2(O)C(=O)Nc3ccc(C)cc32)cc1OC (stereo not drawn),"inconclusive: 10.3 µM [rising, partial curve, poor fit]",–
O=S(=O)(c1ccccc1)N1CCN(Cc2nnc(-c3ccccc3)o2)CC1,"inconclusive: 20.6 µM [cytotoxic, single point]",–
COc1ccc(/C=C2\Oc3ccccc3C2=O)cc1,"inconclusive: 23.1 µM [cytotoxic, single point]",–
CN1C(C(=O)NCCc2cccs2)CC2Cn3c(nc4cc(Cl)c(Cl)cc43)C21 (stereo not drawn),"inconclusive: 20.6 µM [rising, partial curve, poor fit]",–
COC(=O)[C@@]12C[C@@H](CC(=O)NCc3cccc4ccccc34)C(=O)N(Cc3ccccc3)C1=CCC(C)(C)C2,active: 20.6 µM,–
O=C(COC(=O)c1ccc[n+]([O-])c1)Nc1ccc(Cl)cc1[N+](=O)[O-],–,inactive: 19.5%
Cc1sc2ncn(C(C)C(=O)OC3CCCCC3)c(=O)c2c1C (stereo not drawn),"inconclusive: 9.2 µM [cytotoxic, partial curve]",–
COc1cc(S(=O)(=O)NCc2ccncc2)ccc1Br,"inconclusive: 2.06 µM [cytotoxic, full curve]",–
CCOc1ccc(-c2nn3c(-c4ccc(F)cc4)nnc3s2)cc1,–,inactive: -1.24%
Cc1ccc(C(=O)Nc2ccc3[nH]c(=O)[nH]c3c2)c(C)c1,"inconclusive: 20.6 µM [rising, single point]",–
Cc1ccc(S(=O)(=O)N2CCCCC2)cc1NC(=S)NC(=O)c1ccco1,"inconclusive: 9.2 µM [cytotoxic, partial curve]",–
C/C(=N\N1C(=O)c2ccccc2NC1c1ccco1)c1ccccc1O (stereo not drawn),"inconclusive: 2.06 µM [cytotoxic, full curve]",–
Cc1cc(C)c(S(=O)(=O)N2CCN(c3ccccn3)CC2)c(C)c1,"inconclusive: 29.1 µM [cytotoxic, single point]",–
CC(C)OP(=O)(c1ccc(N(C)C)cc1)C(O)c1ccccc1F (stereo not drawn),"inconclusive: 8.2 µM [cytotoxic, partial curve]",–
C=CCn1c(=O)c(C(=O)Nc2cccnc2)c(O)c2ccccc21,"inconclusive: 18.4 µM [cytotoxic, partial curve, poor fit]",–
CC(=O)c1ccc(N2CCN(c3ncnc4onc(-c5ccc(Cl)cc5)c34)CC2)cc1,–,inactive: -25.2%
O=C(N/N=C/c1cc(Br)ccc1O)c1cccc(N2CCCC2=O)c1,–,inactive: -26.5%

SMILES,Potency,"activity change, negative = cytotoxicity"
O=C(N=Nc1c(O)n(C2OC(=O)c3ccccc32)c2ccccc12)c1ccc(O)cc1 (stereo not drawn),–,inactive: 27.3%
O=C(c1cccc(NS(=O)(=O)c2ccc(F)c(F)c2)c1)N1CCN(Cc2ccccc2)CC1,"inconclusive: 9.2 µM [cytotoxic, partial curve]",–
CN(C)C(=O)N1CCNCC1,"inconclusive: 29.1 µM [rising, single point]",–
COc1cc(-c2nc3cccc(C)n3c2Nc2ccc3c(c2)OCCO3)ccc1O,–,inactive: 1.75%
CCN(CC)c1ccc(/C=N/N2CCN(Cc3ccc(C)cc3C)CC2)c(O)c1,"inconclusive: 16.4 µM [cytotoxic, single point]",–
CCOC(=O)c1ccc(NC(=O)CNC(=O)c2ccccc2)cc1,"inconclusive: 16.4 µM [cytotoxic, single point]",–
COc1ccc(NC(=O)CSc2ccc3ccccc3c2)cc1S(=O)(=O)N1CCCCC1,"inconclusive: 16.4 µM [cytotoxic, single point]",–
COc1ccc(OC)c(C(=O)c2ccc(C(=O)Nc3ccccc3)cc2)c1,active: 23.1 µM,–
COCCN(C(=O)Cc1cccs1)C(C(=O)NCc1ccc(OC)cc1)c1ccc(C)cc1 (stereo not drawn),"inconclusive: 23.1 µM [cytotoxic, partial curve, poor fit]",–
Cc1ccc(-n2nc3ccc(NC(=O)/C=C/c4ccco4)cc3n2)cc1,"inconclusive: 18.4 µM [cytotoxic, single point]",–
Cc1cccc2cc(C#N)c(NCCNS(=O)(=O)c3ccccc3)nc12,"inconclusive: 29.1 µM [cytotoxic, single point]",–
CCOC(=O)c1cccc(Nc2nc(C(=O)OCC)nc3ccccc23)c1,"inconclusive: 29.1 µM [cytotoxic, single point]",–
CCCCCn1c(=O)[nH]c2cc(C(=O)N3CCN(c4ccccc4F)CC3)ccc2c1=O,"inconclusive: 29.1 µM [cytotoxic, single point]",–
CCc1ccc(CN(C)C(=O)c2cc(COc3c(F)cccc3F)on2)cc1,–,inactive: -11.3%
CC(=O)c1sc(NC(=O)C(C)Oc2ccc3c(C)cc(=O)oc3c2)nc1C (stereo not drawn),"inconclusive: 29.1 µM [cytotoxic, single point]",–
COc1ccccc1CCC(=O)Nc1ccc2c(c1)c(=O)n(C)n2C,–,inactive: -0.742%
COc1ccc(CCNC(=O)CSc2nnc(CNc3ccc(Cl)cc3)o2)cc1OC,"inconclusive: 23.1 µM [cytotoxic, partial curve, poor fit]",–
CC(C)(C)c1ccc(C(=O)N/N=C/c2ccccn2)cc1,–,inactive: -2.18%
CCOC(=O)c1ccccc1NC(=O)c1cccs1,–,inactive: -8.21%
Cc1ccc(CSc2nnc(-c3cccc(S(=O)(=O)N4CCOCC4)c3)n2C2CCCC2)cc1,"inconclusive: 29.1 µM [cytotoxic, single point]",–
COc1ccc(C(=O)N2CCC(n3nccc3NC(=O)C3CC3)CC2)c(OC)c1OC,"inconclusive: 6.51 µM [rising, partial curve]",–
Cc1ccccc1OCC(=O)OC(C)C(=O)NC1CCCC1 (stereo not drawn),–,inconclusive: 4.31%
